From patent US20210261677A1
Changes are numbered by the printed parent chain. These are yes or no findings as the source states them, for the method shown. Some results given as binding are weak or reduced against the parent protein; the word gives no strength.

Amino acid sequences for entries named in this document (tags omitted). A change or cut given only in a name is not applied to a line headed by its entry. Chains listed by the source or under a name are the forms on record and can include a tag or linker.
recombinant Macaca fascicularis PD-L1-Fc (90251-CO2H, Sino Biological Inc.) (G7PSE7, form named): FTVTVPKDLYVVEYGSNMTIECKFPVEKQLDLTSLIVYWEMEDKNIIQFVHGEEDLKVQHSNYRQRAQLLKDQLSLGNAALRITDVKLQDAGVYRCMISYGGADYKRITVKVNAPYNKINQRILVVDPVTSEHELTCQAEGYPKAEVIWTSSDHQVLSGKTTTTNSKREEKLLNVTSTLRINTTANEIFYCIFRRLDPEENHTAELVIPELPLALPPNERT

B1: anti-PD-L1 fully human antibody YN-002 (antibody, human IgG1, lambda, V domains shown)
VH: QVQLVQSGAEVRKPGSSVKVSCKASGGTFSSYAISWVRQAPGQGLEWMGRIIPILGIANYAQKFQGRVTITADKSTSTAYMELSSLRSEDTAVYYCARTMDGYSYGNFDYWGQGTLVTVSS
VL: QSALTQPASVSGSPGQSITISCTGTSSDVGGYNYVSWYQQHPGKAPKLLIYGNSNRPSGVPDRFSGSKSGTSASLAITGLQAEDEADYYCQSYDSSLSGSVFGGGTKLTVLG
B2: anti-PD-L1 fully human antibody YN-003 (antibody, human IgG1, lambda, V domains shown)
VH: B1 VH with R12K
VL: B1 VL with L49M, P61S, D62N, T71N, S72T, A76T, T78S

Target: recombinant Macaca fascicularis PD-L1-Fc (90251-CO2H, Sino Biological Inc.) (Macaca fascicularis) (UniProt G7PSE7)
Experiment: BLI (Octet RED384) competition: 75 nM Macaca fascicularis PD-L1-Fc pre-mixed with titrated antibody, binding to biotin-labelled PD-1-Fc on an SA sensor

| Binder | binding |
| --- | --- |
| B1 | binds |
| B2 | binds |
